Reference: PubChem BioAssay AID1224826 (NIAID, 2016)

Test: 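Regulators of Tlr4 signalling leading to Tnf-alpha expression in macrophages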 (primary screen)
System: RAW264.7 G9 macrophages from mouse bearing reporters for p65 (GFP) and the Tnf promoter (mCherry)
Knock-down reagent: siRNA pool against mouse genes, 100 nM
Time to read-out: 16 h of LPS stimulation, after 2 days of siRNA transfection
Treatment: bacterial lipopolysaccharide (Salmonella minnesota R595), 10 ng/ml
Measurement: 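Imaged Tnf reporter mCherry in nuclei, minus background, normalised per plate to the median and expressed as robust z-scores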
Scale: Tnf reporter robust z-score: higher = stronger Tnf promoter reporter signal after LPS; Tnf reporter intensity: higher = stronger Tnf promoter reporter signal
Rule for the call: 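a well counts as active at a score of -1.3 or below (Tlr4 knock-down control median) or above 3 (raised signal); controls and wells holding fewer than 50 cells are excluded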
Calls: active = Tnf reporter clearly lowered or raised; inactive = no clear change in Tnf reporter
The whole screen tested about 17,000 reagents; this is an unselected part. About 1,110 of them (6.6%) were called active. 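Active means lowered or raised reporter signal; replicate intensities are raw and not normalised per plate.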 No sequences are given here.

The opening 2 entries as a preview:
| Gene | Tnf reporter robust z-score | fewer than 50 cells in well | Tnf reporter intensity, replicate 1 | Tnf reporter intensity, replicate 2 | activity call |
| --- | --- | --- | --- | --- | --- |
| 1700029F12Rik | 2.17 | enough cells in well | 368 | 147 | inactive |
| Rpusd2 | – | fewer than 50 cells per well; well left out of calls | 139 | 29.5 | inactive |

The list itself, from the first entry:
| Gene | Tnf reporter robust z-score | fewer than 50 cells in well | Tnf reporter intensity, replicate 1 | Tnf reporter intensity, replicate 2 | activity call |
| --- | --- | --- | --- | --- | --- |
| 1700029F12Rik | 2.17 | enough cells in well | 368 | 147 | inactive |
| Rpusd2 | – | fewer than 50 cells per well; well left out of calls | 139 | 29.5 | inactive |
| Sfrp1 | 0.74 | enough cells in well | 366 | 254 | inactive |
| Cabp4 | -1.2 | enough cells in well | 106 | 93 | inactive |
| Otoa | 0.99 | enough cells in well | 317 | 246 | inactive |
| Defb6 | -1.23 | enough cells in well | 110 | 84.9 | inactive |
| Ptger2 | 1.21 | enough cells in well | 423 | 77 | inactive |
| Fam107a | -0.96 | enough cells in well | 95.3 | 108 | inactive |
| Ssh3 | -0.06 | enough cells in well | 288 | 198 | inactive |
| Or4n4b | – | fewer than 50 cells per well; well left out of calls | 451 | 28.5 | inactive |
| Trib2 | 2.14 | enough cells in well | 298 | 143 | inactive |
| R74862 | 0.59 | enough cells in well | 146 | 165 | inactive |
| Prmt6 | -0.47 | enough cells in well | 121 | 161 | inactive |
| Apoc4 | -0.72 | enough cells in well | 118 | 140 | inactive |
| Smndc1 | – | fewer than 50 cells per well; well left out of calls | 222 | 26 | inactive |
| Or52n2c | 0.08 | enough cells in well | 113 | 105 | inactive |
| Gucy1a1 | -0.1 | enough cells in well | 232 | 242 | inactive |
| Lrrn1 | -0.54 | enough cells in well | 157 | 118 | inactive |
| Htr1f | 0.58 | enough cells in well | 257 | 354 | inactive |
| Rnf113a1 | – | fewer than 50 cells per well; well left out of calls | 112 | 69.7 | inactive |
| Tubb3 | 1.31 | enough cells in well | 282 | 389 | inactive |
| Pskh1 | -0.23 | enough cells in well | 184 | 92.5 | inactive |
| Prss46 | 1.69 | enough cells in well | 303 | 146 | inactive |
| Msln | 0.95 | enough cells in well | 349 | 270 | inactive |
